The text below walks through data of PubChem BioAssay AID330 (DTP/NCI, 2004).

In this test the test system is P388 leukemia ip, CD2F1 mice, survival T/C. Kind of test: NCI In Vivo Anticancer Drug Screen. Data for tumor model P388 Leukemia (intraperitoneal) in CD2F1 (CDF1) mice. The following applies: T/C endpoint: median survival time, vehicle: Klucel (hydroxypropylcellulose) (HPC), higher T/C = longer survival.
Setting [1] is: dose: 50.0 mg/kg/injection, schedule: Q01DX001 (ip).
[2] abbreviates: dose: 100.0 mg/kg/injection, schedule: Q01DX001 (ip).

The list does not hold the whole screen: it is rich in T/C values a quarter to a half above the control, in often repeated tests (any T/C) and in doses without a T/C. Further doses and runs are listed elsewhere. T/C gives the treated animals as a percentage of the vehicle group. Some entries give survivors of the animals treated and no T/C: the source files T/C as zero there, which appears to mark a toxic dose or a test without result, not a measured value. Some doses without a T/C left all or most animals alive at the check, yet need not have been tolerated: survival well below the control is almost never listed, so the zero probably covers shortened survival too. Survivors were counted at the toxicity check, usually on the fifth day, unless a day is given; later deaths do not show. Schedule codes are those of the source, read here as Q, the interval in days (D) or hours (H), X, the number of doses. Some entries hold several experiments; the values are given in rising order. For survival time, this PubChem deposit counts one and a half times the control or more as active, and values a quarter to a half above the control carry no call in these data; other NCI protocols may use other cut-offs. Some T/C values carry the count of animals alive at the toxicity check (mostly the fifth day); without a count, all were alive then. Signs of the kind (2×) say how often a value occurs here.

With `CC(=O)NNC(=O)c1ccccn1`, the T/C was 87, 93, 95 [2 of 3 alive], 96, 97 (2×), 98, 99, 99 [5 of 6 alive], 100 (2×), 101 (3×), 102, 103 (2×), 104 (3×), 105, 106 (2×), 109, 112, 114, 122, 128, 164 % of control (dose: 25.0 mg/kg/injection, schedule: Q01DX005 (ip), evaluated on day 30); 108 % of control (dose: 25.0 mg/kg/injection, schedule: Q01DX005 (ip), evaluated on day 35); 88, 89, 91 (2×), 93, 94, 95 (2×), 96, 97, 98, 99 (3×), 100 (5×), 102 (6×), 104, 105, 107, 112, 116 (2×), 123 % of control (dose: 25.0 mg/kg/injection, schedule: Q01DX009 (ip), evaluated on day 30); 91 and 98 % of control (dose: 25.0 mg/kg/injection, schedule: Q01DX009 (ip), evaluated on day 35); 89 [4 of 6 alive], 90, 95, 96 (2×), 98, 99 (2×), 99 [5 of 6 alive], 100 (7×), 101 (5×), 102 (2×), 105, 108, 109, 111, 112, 113, 114, 115 % of control under setting [1]; 89, 92, 94, 95, 96 (2×), 97, 99, 100 (7×), 101 (2×), 102, 103, 104 (2×), 105, 108 (2×), 109 (2×), 111, 112, 140, 176 % of control (dose: 50.0 mg/kg/injection, schedule: Q01DX005 (ip), evaluated on day 30). Further, the T/C (dose: 50.0 mg/kg/injection, schedule: Q01DX005 (ip), evaluated on day 35) is 116 % of control; the T/C (dose: 50.0 mg/kg/injection, schedule: Q01DX009 (ip), evaluated on day 30) is 87, 91, 92, 93, 94, 95, 96, 97, 98 (3×), 99 (2×), 100 (4×), 102 (5×), 103, 104 (2×), 105, 106, 107, 109 (2×), 110 % of control (2×); the T/C (dose: 50.0 mg/kg/injection, schedule: Q01DX009 (ip), evaluated on day 35) is 87 and 104 % of control; the T/C (dose: 50.0 mg/kg/injection, schedule: Q04DX002 (ip), evaluated on day 30) is 88, 94, 95, 96, 97 (2×), 98 (2×), 99 (3×), 100 (7×), 101 (2×), 102, 104 (3×), 105 (2×), 106, 107, 110, 113, 132, 155, 166 % of control; the T/C (dose: 50.0 mg/kg/injection, schedule: Q04DX002 (ip), evaluated on day 35) is 99, 102, 109 % of control; the T/C (dose: 50.0 mg/kg/injection, schedule: Q04DX003 (ip)) is 89, 90, 93 (2×), 95, 96 (2×), 97, 98, 99 (5×), 100 (4×), 101, 102, 103, 104 (4×), 105, 106 (2×), 107 (2×), 108, 109, 115, 117 % of control. Further, the T/C under setting [2] is 91 (3×), 95 (2×), 96, 98 (2×), 99 (3×), 100, 101, 102 (5×), 103 (3×), 104 (3×), 105, 106, 107, 112, 114 (2×), 119 % of control; the T/C (dose: 100.0 mg/kg/injection, schedule: Q01DX005 (ip), evaluated on day 30) was 90, 96, 97, 99, 99 [2 of 2 alive], 100 (5×), 100 [2 of 3 alive], 101, 102 (4×), 103 (2×), 104, 105 (2×), 106 (2×), 106 [2 of 3 alive], 108, 109, 110, 111, 113, 115, 123, 238 % of control; the T/C (dose: 100.0 mg/kg/injection, schedule: Q01DX005 (ip), evaluated on day 35) was 112 % of control; the T/C (dose: 100.0 mg/kg/injection, schedule: Q01DX009 (ip), evaluated on day 30) is 87, 89, 91, 94 (2×), 95, 96, 97 (2×), 98 (5×), 100 (2×), 101, 102 (3×), 104, 105 (2×), 106, 107, 109, 110 (2×), 111, 120, 125, 127 % of control; the T/C (dose: 100.0 mg/kg/injection, schedule: Q01DX009 (ip), evaluated on day 35) is 87 and 107 % of control. Besides, the survivor count reads like this: (dose: 25.0 mg/kg/injection, schedule: Q01DX005 (ip)) 3 of 3 and 6 of 6; (dose: 25.0 mg/kg/injection, schedule: Q01DX009 (ip)) 3 of 3; under setting [1], 6 of 6; (dose: 50.0 mg/kg/injection, schedule: Q01DX005 (ip)) 3 of 3 and 6 of 6; (dose: 50.0 mg/kg/injection, schedule: Q01DX009 (ip)) 2 of 3; (dose: 50.0 mg/kg/injection, schedule: Q04DX002 (ip)) 3 of 3 and 6 of 6. Under setting [2], the survivor count is 6 of 6.
